From paper PMC5024437
Results are given in words; binding and its absence hold for the method and conditions named. In cells and extracts the contact can be indirect. Some entries that bind do so weakly or less than the wild type.

Biological target: T1, mSos1 (human (endogenous in A549)), Q07889
T1 chain: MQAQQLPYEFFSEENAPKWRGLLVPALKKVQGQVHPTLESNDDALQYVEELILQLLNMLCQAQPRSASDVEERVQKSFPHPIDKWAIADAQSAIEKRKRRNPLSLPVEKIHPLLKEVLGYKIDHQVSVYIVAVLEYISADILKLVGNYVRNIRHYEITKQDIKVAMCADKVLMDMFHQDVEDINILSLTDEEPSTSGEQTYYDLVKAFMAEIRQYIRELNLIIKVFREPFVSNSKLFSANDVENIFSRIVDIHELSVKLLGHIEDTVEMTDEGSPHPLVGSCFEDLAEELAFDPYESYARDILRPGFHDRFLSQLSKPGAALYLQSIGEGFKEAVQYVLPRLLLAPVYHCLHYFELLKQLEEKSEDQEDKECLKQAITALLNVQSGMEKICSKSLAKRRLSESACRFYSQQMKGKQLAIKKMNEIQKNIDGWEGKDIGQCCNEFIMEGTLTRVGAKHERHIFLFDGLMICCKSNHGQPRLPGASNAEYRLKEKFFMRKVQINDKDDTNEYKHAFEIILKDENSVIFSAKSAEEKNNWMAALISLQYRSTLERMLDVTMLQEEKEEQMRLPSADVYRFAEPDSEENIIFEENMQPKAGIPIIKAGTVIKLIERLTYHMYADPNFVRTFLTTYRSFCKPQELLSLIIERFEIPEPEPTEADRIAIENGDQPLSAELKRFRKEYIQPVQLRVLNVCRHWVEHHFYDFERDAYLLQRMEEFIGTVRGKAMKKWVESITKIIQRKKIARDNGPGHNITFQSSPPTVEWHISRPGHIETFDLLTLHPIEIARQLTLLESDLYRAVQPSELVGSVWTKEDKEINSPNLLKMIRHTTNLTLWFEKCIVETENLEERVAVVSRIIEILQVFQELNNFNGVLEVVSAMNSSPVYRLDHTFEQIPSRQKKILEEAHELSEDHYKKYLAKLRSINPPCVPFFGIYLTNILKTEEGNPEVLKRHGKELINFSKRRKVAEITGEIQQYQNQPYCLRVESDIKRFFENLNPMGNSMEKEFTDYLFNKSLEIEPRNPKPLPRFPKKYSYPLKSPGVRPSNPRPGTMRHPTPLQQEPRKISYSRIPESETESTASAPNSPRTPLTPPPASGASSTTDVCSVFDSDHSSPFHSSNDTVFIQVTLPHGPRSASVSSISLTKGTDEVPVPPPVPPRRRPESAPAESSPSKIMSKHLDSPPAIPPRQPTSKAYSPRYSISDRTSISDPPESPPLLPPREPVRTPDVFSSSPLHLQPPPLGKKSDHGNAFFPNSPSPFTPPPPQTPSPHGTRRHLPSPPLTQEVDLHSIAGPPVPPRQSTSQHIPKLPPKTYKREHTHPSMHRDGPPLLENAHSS
Assay: co-IP; A549 and A549 + ITSN-1s (stable myc-ITSN-1s) cell lysates, 500 ug total protein, lysis buffer 50 mM Tris-HCl pH 8.0, 150 mM NaCl, 1 % NP-40; IP with 3 ug mSos1 or Cbl Ab and protein A/G, WB with Rac1 or Eps8 Ab; densitometry as percentage of control
Conditions: remark: other sources report otherwise

B1: Eps8, Q12929 1-822 (natural protein)
chain: MNGHISNHPSSFGMYPSQMNGYGSSPTFSQTDREHGSKTSAKALYEQRKNYARDSVSSVSDISQYRVEHLTTFVLDRKDAMITVDDGIRKLKLLDAKGKVWTQDMILQVDDRAVSLIDLESKNELENFPLNTIQHCQAVMHSCSYDSVLALVCKEPTQNKPDLHLFQCDEVKANLISEDIESAISDSKGGKQKRRPDALRMISNADPSIPPPPRAPAPAPPGTVTQVDVRSRVAAWSAWAADQGDFEKPRQYHEQEETPEMMAARIDRDVQILNHILDDIEFFITKLQKAAEAFSELSKRKKNKKGKRKGPGEGVLTLRAKPPPPDEFLDCFQKFKHGFNLLAKLKSHIQNPSAADLVHFLFTPLNMVVQATGGPELASSVLSPLLNKDTIDFLNYTVNGDERQLWMSLGGTWMKARAEWPKEQFIPPYVPRFRNGWEPPMLNFMGATMEQDLYQLAESVANVAEHQRKQEIKRLSTEHSSVSEYHPADGYAFSSNIYTRGSHLDQGEAAVAFKPTSNRHIDRNYEPLKTQPKKYAKSKYDFVARNNSELSVLKDDILEILDDRKQWWKVRNASGDSGFVPNNILDIVRPPESGLGRADPPYTHTIQKQRMEYGPRPADTPPAPSPPPTPAPVPVPLPPSTPAPVPVSKVPANITRQNSSSSDSGGSIVRDSQRHKQLPVDRRKSQMEEVQDELIHRLTIGRSAAQKKFHVPRQNVPVINITYDSTPEDVKTWLQSKGFNPVTVNSLGVLNGAQLFSLNKDELRTVCPEGARVYSQITVQKAALEDSSGSSELQEIMRRRQEKISAAASDSGVESFDEGSSH
With B1 the binding was “binds”.
